{
  "source": "the supplement of paper PMC8728848",
  "experiment_in_all_cases": "glycan array binding signal (z-score within array); higher = stronger binding",
  "settings_in_all_cases": "glycan notation: IUPAC condensed, linker removed",
  "key": {"Gal(b1-4)GlcNAc": {"target": "Gal(b1-4)GlcNAc", "summary_of_the_method": "(§1)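 Negative Z-scores can be read as non-binding. The Z-score is calculated within each array and then averaged across arrays of one protein sequence at different concentrations or buffers and across linkers. Arrays, 3228 in all, were curated from the Consortium for Functional Glycomics database and kept only where the protein sequence was available.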"}, "[1]": {"target": "Gal(b1-4)GlcNAc(a1-6)Gal(b1-4)GlcNAc", "summary_of_the_method": "as §1"}, "Gal(b1-4)GlcNAc(b1-2)Man": {"target": "Gal(b1-4)GlcNAc(b1-2)Man", "summary_of_the_method": "as §1"}, "[2]": {"target": "Gal(b1-4)GlcNAc(b1-2)Man(a1-3)Man(b1-4)GlcNAc(b1-4)GlcNAc", "summary_of_the_method": "as §1"}, "[3]": {"target": "Gal(b1-4)GlcNAc(b1-2)Man(a1-3)[Gal(b1-4)GlcNAc(b1-2)Man(a1-6)]Man(b1-4)GlcNAc(b1-4)GlcNAc", "summary_of_the_method": "as §1"}, "[4]": {"target": "Gal(b1-4)GlcNAc(b1-2)Man(a1-3)[Gal(b1-4)GlcNAc(b1-2)Man(a1-6)]Man(b1-4)GlcNAc(b1-4)[Fuc(a1-6)]GlcNAc", "summary_of_the_method": "as §1"}, "[5]": {"target": "Gal(b1-4)GlcNAc(b1-2)Man(a1-3)[Gal(b1-4)GlcNAc(b1-2)Man(a1-6)][Gal(b1-4)GlcNAc(b1-4)]Man(b1-4)GlcNAc(b1-4)[Fuc(a1-6)]GlcNAc", "summary_of_the_method": "as §1"}, "[6]": {"target": "Gal(b1-4)GlcNAc(b1-2)Man(a1-3)[Gal(b1-4)GlcNAc(b1-2)Man(a1-6)][GlcNAc(b1-4)]Man(b1-4)GlcNAc(b1-4)[Fuc(a1-6)]GlcNAc", "summary_of_the_method": "as §1"}, "[7]": {"target": "Gal(b1-4)GlcNAc(b1-2)Man(a1-3)[Gal(b1-4)GlcNAc(b1-2)][GlcNAc(b1-4)]Man(b1-4)GlcNAc(b1-4)GlcNAc", "summary_of_the_method": "as §1"}, "[8]": {"target": "Gal(b1-4)GlcNAc(b1-2)Man(a1-3)[GlcNAc(b1-2)Man(a1-6)]Man(b1-4)GlcNAc(b1-4)GlcNAc", "summary_of_the_method": "as §1"}, "[9]": {"target": "Gal(b1-4)GlcNAc(b1-2)Man(a1-3)[GlcNAc(b1-4)][Gal(b1-4)GlcNAc(b1-2)Man(a1-6)]Man(b1-4)GlcNAc(b1-4)GlcNAc", "summary_of_the_method": "as §1"}, "[10]": {"target": "Gal(b1-4)GlcNAc(b1-2)Man(a1-3)[Man(a1-6)]Man(b1-4)GlcNAc(b1-4)GlcNAc", "summary_of_the_method": "as §1"}, "[11]": {"target": "Gal(b1-4)GlcNAc(b1-2)Man(a1-6)Man(b1-4)GlcNAc(b1-4)GlcNAc", "summary_of_the_method": "as §1"}, "[12]": {"target": "Gal(b1-4)GlcNAc(b1-2)Man(a1-6)[GlcNAc(b1-2)Man(a1-3)]Man(b1-4)GlcNAc(b1-4)GlcNAc", "summary_of_the_method": "as §1"}, "[13]": {"target": "Gal(b1-4)GlcNAc(b1-2)Man(a1-6)[Man(a1-3)]Man(b1-4)GlcNAc(b1-4)GlcNAc", "summary_of_the_method": "as §1"}, "[14]": {"target": "Gal(b1-4)GlcNAc(b1-2)[Gal(b1-4)GlcNAc(b1-4)]Man(a1-3)[Gal(b1-4)GlcNAc(b1-2)Man(a1-6)]Man(b1-4)GlcNAc(b1-4)GlcNAc", "summary_of_the_method": "as §1"}, "[15]": {"target": "Gal(b1-4)GlcNAc(b1-2)[Gal(b1-4)GlcNAc(b1-4)]Man(a1-3)[Gal(b1-4)GlcNAc(b1-2)[Gal(b1-4)GlcNAc(b1-6)]Man(a1-6)]Man(b1-4)GlcNAc(b1-4)GlcNAc", "summary_of_the_method": "as §1"}, "[16]": {"target": "Gal(b1-4)GlcNAc(b1-2)[Gal(b1-4)GlcNAc(b1-4)]Man(a1-3)[GlcNAc(b1-4)][Gal(b1-4)GlcNAc(b1-2)Man(a1-6)]Man(b1-4)GlcNAc(b1-4)GlcNAc", "summary_of_the_method": "as §1"}, "[17]": {"target": "Gal(b1-4)GlcNAc(b1-2)[Gal(b1-4)GlcNAc(b1-4)]Man(a1-3)[GlcNAc(b1-4)][Gal(b1-4)GlcNAc(b1-2)[Gal(b1-4)GlcNAc(b1-6)]Man(a1-6)]Man(b1-4)GlcNAc(b1-4)GlcNAc", "summary_of_the_method": "as §1"}, "[18]": {"target": "Gal(b1-4)GlcNAc(b1-2)[Gal(b1-4)GlcNAc(b1-6)]Man(a1-6)[Gal(b1-4)GlcNAc(b1-2)Man(a1-3)]Man(b1-4)GlcNAc(b1-4)GlcNAc", "summary_of_the_method": "as §1"}, "[19]": {"target": "Gal(b1-4)GlcNAc(b1-2)[Gal(b1-4)GlcNAc(b1-6)]Man(a1-6)[Gal(b1-4)GlcNAc(b1-2)Man(a1-3)]Man(b1-4)GlcNAc(b1-4)[Fuc(a1-6)]GlcNAc", "summary_of_the_method": "as §1"}, "[20]": {"target": "Gal(b1-4)GlcNAc(b1-2)[Gal(b1-4)GlcNAc(b1-6)]Man(a1-6)[GlcNAc(b1-4)][Gal(b1-4)GlcNAc(b1-2)Man(a1-3)]Man(b1-4)GlcNAc(b1-4)GlcNAc", "summary_of_the_method": "as §1"}},
  "note": "The list shows a part of the results.",
  "data": [
    {"binder": "GST Gap3 (Streptococcus parasanguinis) (protein) MTKQLISEIYWNEIRKGENYLYGSQIKFQEDLVNFYNPQLASGKPIVTFKSRTNYQGDRHSPDLPILIQGNRYLLEYQIDAVPANSFFLQLDFFNRQAEQIESIVLRNSGESFIFPKDTFTYTLTLMSAGCQSVTYQKFMIYDINDEEKKNHIVENRYLRELLPKDLDLVKNLIEYI", "values": [
      {"measurement": "glycan array binding signal (z-score)", "setting": "Gal(b1-4)GlcNAc", "value": -0.256},
      {"measurement": "glycan array binding signal (z-score)", "setting": "[1]", "value": -0.425},
      {"measurement": "glycan array binding signal (z-score)", "setting": "Gal(b1-4)GlcNAc(b1-2)Man", "value": -0.221},
      {"measurement": "glycan array binding signal (z-score)", "setting": "[2]", "value": 0.302},
      {"measurement": "glycan array binding signal (z-score)", "setting": "[3]", "value": 0.471},
      {"measurement": "glycan array binding signal (z-score)", "setting": "[4]", "value": -0.204},
      {"measurement": "glycan array binding signal (z-score)", "setting": "[5]", "value": -0.033},
      {"measurement": "glycan array binding signal (z-score)", "setting": "[6]", "value": -0.477},
      {"measurement": "glycan array binding signal (z-score)", "setting": "[7]", "value": -0.614},
      {"measurement": "glycan array binding signal (z-score)", "setting": "[8]", "value": 0.067},
      {"measurement": "glycan array binding signal (z-score)", "setting": "[9]", "value": 0.235},
      {"measurement": "glycan array binding signal (z-score)", "setting": "[10]", "value": 1.04},
      {"measurement": "glycan array binding signal (z-score)", "setting": "[11]", "value": 0.144},
      {"measurement": "glycan array binding signal (z-score)", "setting": "[12]", "value": -0.251},
      {"measurement": "glycan array binding signal (z-score)", "setting": "[13]", "value": 0.013},
      {"measurement": "glycan array binding signal (z-score)", "setting": "[14]", "value": 0.283},
      {"measurement": "glycan array binding signal (z-score)", "setting": "[15]", "value": 0.566},
      {"measurement": "glycan array binding signal (z-score)", "setting": "[16]", "value": -0.238},
      {"measurement": "glycan array binding signal (z-score)", "setting": "[17]", "value": 0.389},
      {"measurement": "glycan array binding signal (z-score)", "setting": "[18]", "value": 1.94},
      {"measurement": "glycan array binding signal (z-score)", "setting": "[19]", "value": 0.799},
      {"measurement": "glycan array binding signal (z-score)", "setting": "[20]", "value": 0.491}
    ]}
  ]
}
